This list holds what a sample rich in targets with a hit left over. The data scatter; read single values as rough. This is a selection; strong and weak results do not stand in their true shares.
Compound: COC(=O)/C=C/c1ccccc1 [methyl cinnamate]
Assay: log2 ratio of iodoacetamide-alkyne labeling of the cysteine site, DMSO over compound (competition); higher = stronger covalent engagement of the cysteine by the compound, active = 1 or more
Conditions: 500 µM; treatment time 1 h; system: HEK293T cell lysate
Method in brief: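 The log2 competition ratio per cysteine is defined as mean reporter intensity in control channels over mean reporter intensity in compound channels. Lysate from HEK293T cells (2 mg/mL) received electrophile (500 µM) or vehicle for 1 h at ambient temperature, followed by iodoacetamide alkyne for 1 h. Samples were clicked to sCIP-TMT reagents, pooled, trypsin-digested overnight at 37 °C, streptavidin-enriched, acid-eluted and run on Orbitrap Eclipse LC-MS/MS with FAIMS, with quantification in FragPipe. Three replicates with duplicate channels were used, and any cysteine quantified in only one replicate was excluded.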

By UniProt entry, the sequences of proteins in these tests, tags left out. Where a name states a change or a piece, a line headed by the entry shows the natural chain unless it says otherwise.
UniProt Q8N6Q8: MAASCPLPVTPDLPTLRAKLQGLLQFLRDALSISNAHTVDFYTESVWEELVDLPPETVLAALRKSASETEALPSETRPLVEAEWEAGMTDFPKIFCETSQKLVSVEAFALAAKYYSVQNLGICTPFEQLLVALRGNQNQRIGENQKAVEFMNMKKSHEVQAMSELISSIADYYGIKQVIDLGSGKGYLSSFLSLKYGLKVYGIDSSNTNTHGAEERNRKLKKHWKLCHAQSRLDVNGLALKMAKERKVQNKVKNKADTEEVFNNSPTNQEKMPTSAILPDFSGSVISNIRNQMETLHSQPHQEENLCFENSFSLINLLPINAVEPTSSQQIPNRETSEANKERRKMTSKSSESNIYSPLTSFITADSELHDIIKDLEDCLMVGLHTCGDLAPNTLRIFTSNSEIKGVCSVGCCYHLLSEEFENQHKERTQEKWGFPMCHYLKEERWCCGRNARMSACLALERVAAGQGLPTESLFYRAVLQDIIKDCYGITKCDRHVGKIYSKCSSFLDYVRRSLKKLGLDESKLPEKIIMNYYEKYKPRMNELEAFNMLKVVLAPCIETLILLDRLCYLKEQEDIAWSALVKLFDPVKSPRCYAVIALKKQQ
UniProt Q8TD16, whole entry: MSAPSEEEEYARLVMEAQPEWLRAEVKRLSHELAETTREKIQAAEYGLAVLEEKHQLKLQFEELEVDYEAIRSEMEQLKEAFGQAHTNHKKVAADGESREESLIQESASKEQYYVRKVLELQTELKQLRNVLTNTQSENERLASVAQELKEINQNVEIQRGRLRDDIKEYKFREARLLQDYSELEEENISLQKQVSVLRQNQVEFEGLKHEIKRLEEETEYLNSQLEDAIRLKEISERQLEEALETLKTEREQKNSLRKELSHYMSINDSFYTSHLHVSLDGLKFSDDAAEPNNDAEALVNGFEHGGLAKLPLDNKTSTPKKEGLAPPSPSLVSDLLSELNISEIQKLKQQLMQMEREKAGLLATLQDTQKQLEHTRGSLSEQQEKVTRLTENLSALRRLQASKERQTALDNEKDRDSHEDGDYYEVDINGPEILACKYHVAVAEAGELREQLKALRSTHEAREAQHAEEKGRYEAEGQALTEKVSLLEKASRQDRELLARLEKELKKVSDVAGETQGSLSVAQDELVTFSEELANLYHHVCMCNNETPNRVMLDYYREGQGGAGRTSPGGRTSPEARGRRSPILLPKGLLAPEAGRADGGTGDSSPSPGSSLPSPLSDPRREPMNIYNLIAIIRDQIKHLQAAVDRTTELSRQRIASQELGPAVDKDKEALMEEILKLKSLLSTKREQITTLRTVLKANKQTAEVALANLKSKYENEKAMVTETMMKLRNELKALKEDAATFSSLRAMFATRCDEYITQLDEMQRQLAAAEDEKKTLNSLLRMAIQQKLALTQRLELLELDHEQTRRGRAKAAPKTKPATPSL
UniProt Q8WYP5: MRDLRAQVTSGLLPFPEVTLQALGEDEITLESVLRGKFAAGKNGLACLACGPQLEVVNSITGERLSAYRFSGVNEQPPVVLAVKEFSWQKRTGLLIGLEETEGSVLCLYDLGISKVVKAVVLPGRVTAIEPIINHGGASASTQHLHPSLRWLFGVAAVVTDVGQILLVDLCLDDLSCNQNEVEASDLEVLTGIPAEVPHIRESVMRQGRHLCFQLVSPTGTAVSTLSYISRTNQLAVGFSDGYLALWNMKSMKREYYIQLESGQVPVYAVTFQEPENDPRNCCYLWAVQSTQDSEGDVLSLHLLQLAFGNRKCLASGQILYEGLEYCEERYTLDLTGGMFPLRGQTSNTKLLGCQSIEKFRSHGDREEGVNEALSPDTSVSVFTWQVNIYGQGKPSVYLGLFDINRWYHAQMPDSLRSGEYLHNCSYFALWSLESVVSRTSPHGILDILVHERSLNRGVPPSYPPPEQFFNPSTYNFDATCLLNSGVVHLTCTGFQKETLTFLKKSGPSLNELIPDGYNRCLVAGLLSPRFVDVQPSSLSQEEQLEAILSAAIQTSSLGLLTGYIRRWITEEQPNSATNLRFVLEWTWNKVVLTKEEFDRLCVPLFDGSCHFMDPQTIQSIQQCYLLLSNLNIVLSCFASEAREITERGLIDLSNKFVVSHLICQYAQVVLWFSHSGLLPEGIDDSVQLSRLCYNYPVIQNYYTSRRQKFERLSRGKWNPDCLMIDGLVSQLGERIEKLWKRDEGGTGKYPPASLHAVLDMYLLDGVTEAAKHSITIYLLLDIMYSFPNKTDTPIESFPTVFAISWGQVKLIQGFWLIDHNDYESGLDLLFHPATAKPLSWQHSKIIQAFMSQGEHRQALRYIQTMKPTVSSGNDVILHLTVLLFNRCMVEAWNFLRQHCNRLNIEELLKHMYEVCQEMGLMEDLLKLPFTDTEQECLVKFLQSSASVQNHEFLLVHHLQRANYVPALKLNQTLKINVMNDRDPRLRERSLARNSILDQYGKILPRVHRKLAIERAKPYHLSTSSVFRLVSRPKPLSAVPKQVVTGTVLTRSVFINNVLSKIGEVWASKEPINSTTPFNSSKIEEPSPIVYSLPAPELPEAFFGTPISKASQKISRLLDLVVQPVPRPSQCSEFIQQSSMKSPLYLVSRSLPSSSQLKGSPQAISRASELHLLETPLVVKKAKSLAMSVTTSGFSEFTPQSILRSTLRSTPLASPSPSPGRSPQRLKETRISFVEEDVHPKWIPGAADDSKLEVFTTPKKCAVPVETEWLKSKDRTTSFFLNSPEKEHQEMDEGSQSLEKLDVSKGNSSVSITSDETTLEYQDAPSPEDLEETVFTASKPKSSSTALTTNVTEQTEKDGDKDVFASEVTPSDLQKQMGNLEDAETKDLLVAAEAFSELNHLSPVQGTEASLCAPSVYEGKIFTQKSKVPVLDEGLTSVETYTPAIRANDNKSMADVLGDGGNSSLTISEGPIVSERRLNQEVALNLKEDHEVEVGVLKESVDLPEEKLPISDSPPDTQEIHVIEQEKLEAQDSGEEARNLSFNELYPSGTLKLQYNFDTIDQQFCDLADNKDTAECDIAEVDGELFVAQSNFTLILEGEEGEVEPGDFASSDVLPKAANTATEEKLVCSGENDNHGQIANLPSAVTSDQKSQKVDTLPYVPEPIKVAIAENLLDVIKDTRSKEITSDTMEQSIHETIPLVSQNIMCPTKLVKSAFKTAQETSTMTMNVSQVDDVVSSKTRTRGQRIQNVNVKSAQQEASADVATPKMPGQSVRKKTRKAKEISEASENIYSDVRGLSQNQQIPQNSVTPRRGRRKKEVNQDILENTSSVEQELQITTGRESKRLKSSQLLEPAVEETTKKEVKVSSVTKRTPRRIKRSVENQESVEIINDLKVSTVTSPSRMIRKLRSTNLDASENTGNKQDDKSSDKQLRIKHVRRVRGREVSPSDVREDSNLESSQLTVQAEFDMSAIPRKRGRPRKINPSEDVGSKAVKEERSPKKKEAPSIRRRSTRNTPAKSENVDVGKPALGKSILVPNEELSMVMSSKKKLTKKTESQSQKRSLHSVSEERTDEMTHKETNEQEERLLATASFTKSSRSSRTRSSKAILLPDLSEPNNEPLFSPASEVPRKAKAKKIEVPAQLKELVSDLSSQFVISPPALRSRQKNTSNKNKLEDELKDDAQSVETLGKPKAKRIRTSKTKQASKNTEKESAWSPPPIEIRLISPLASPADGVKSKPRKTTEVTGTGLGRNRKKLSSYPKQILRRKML
UniProt Q8N1G4: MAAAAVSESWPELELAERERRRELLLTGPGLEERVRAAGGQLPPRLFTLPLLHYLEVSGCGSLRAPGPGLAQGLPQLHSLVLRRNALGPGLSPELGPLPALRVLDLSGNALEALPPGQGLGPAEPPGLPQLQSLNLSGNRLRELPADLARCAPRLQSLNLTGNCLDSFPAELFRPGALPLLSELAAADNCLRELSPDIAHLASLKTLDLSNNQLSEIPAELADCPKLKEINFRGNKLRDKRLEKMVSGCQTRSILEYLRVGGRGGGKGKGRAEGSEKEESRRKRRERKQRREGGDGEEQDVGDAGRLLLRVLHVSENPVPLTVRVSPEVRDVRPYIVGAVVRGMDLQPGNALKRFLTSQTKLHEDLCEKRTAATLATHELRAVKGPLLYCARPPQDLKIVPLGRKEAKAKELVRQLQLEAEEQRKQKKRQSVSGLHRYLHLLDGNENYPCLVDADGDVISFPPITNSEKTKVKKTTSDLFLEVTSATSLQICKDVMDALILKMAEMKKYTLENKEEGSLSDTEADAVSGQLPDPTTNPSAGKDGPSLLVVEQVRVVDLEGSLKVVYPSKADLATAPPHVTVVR
UniProt Q8N6T7, whole entry: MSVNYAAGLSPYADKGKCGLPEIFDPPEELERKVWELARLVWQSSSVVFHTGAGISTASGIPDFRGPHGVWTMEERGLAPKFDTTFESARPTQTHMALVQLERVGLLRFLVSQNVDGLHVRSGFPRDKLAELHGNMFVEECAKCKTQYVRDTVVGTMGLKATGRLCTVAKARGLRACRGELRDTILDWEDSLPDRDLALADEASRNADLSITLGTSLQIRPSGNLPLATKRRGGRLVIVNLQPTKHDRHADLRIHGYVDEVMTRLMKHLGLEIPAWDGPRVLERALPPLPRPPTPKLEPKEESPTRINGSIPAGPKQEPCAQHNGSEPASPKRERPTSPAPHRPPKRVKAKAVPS
UniProt Q8N6T3: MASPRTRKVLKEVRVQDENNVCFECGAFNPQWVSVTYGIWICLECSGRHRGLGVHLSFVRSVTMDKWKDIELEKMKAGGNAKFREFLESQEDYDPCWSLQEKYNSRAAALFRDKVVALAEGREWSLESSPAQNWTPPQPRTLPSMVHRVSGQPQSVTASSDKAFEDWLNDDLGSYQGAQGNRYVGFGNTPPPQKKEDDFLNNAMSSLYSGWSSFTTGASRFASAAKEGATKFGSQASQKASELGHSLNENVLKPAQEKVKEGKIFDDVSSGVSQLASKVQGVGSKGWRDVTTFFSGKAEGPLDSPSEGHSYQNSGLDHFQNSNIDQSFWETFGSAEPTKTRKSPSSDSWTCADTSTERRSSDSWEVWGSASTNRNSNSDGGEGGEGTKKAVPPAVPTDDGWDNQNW
UniProt Q8TD30: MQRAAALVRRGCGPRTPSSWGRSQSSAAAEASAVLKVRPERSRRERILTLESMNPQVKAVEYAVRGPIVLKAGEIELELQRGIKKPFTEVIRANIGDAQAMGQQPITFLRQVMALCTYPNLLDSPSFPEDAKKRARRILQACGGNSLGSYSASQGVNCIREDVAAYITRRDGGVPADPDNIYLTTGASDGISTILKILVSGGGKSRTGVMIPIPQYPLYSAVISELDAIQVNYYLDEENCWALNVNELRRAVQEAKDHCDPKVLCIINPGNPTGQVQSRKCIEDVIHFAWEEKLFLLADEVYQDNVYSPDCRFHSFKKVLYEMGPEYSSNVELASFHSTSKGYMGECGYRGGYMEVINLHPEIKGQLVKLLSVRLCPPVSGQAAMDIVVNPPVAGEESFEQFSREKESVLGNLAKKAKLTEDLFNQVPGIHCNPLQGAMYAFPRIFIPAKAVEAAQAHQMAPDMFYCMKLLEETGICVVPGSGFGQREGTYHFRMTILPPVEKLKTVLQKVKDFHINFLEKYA
UniProt Q8TBE9: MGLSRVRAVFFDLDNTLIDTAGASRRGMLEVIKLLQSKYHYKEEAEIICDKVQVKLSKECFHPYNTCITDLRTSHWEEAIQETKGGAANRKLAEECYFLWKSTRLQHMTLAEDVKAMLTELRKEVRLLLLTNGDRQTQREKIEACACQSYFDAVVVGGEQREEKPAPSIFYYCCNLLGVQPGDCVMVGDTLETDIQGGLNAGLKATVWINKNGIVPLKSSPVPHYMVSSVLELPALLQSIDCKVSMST
UniProt Q8N8A6: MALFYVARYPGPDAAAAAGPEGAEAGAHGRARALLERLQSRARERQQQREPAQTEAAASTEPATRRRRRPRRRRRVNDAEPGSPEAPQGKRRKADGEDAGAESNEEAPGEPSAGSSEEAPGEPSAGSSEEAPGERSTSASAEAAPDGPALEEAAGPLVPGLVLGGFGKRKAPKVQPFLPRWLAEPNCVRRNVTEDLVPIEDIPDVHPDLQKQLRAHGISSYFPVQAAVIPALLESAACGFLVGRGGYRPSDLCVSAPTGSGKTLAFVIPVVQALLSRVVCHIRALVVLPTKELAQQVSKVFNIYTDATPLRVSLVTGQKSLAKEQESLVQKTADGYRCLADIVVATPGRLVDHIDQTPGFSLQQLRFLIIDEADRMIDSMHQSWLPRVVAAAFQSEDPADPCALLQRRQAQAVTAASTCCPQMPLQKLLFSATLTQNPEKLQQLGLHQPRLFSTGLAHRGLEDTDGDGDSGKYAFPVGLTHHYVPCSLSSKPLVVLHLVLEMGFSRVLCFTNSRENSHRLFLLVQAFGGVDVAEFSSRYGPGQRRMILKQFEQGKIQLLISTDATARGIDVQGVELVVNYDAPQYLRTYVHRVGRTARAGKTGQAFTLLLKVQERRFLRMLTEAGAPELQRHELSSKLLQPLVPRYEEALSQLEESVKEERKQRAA

log2 ratio of iodoacetamide-alkyne labeling, inactive:
PHIP C130 (UniProt Q8WWQ0) 0.211
UniProt Q8N6Q8_C5 0.32
ASCC3 C208 (UniProt Q8N3C0) 0.277
PARD3 C806 (UniProt Q8TEW0) 0.128
FLAD1 C496 (UniProt Q8NFF5) 0.105
BICD2 C754 (UniProt Q8TD16) 0.0383
SYNE2 C1235 (UniProt Q8WXH0) 0.0451
UniProt Q8N163_C644 0.00694
ARFGAP2 C79 (UniProt Q8N6H7) 0.178
AHCTF1 C1131 (UniProt Q8WYP5) 0.167
LRRC47 C224 (UniProt Q8N1G4) 0.188
OTUD6B C292 (UniProt Q8N6M0) 0.297
LRRC47 C450 (UniProt Q8N1G4) -0.395
UniProt Q8WZA9_C373 0.636
PDCD6IP C524 (UniProt Q8WUM4) 0.0858
UniProt Q8TEJ3_C428 0.112
TBC1D15 C686 (UniProt Q8TC07) 0.284
UniProt Q8N8U9_C189 0.186
TXNDC5 C89 (UniProt Q8NBS9) -0.00739
PDCD6IP C250 (UniProt Q8WUM4) 0.214
ZNF687 C339 (UniProt Q8N1G0) 0.357
SIRT6 C18 (UniProt Q8N6T7) 0.179
AHCTF1 C693 (UniProt Q8WYP5) 0.243
GADD45GIP1 C124 (UniProt Q8TAE8) 0.139
NHLRC2 C716 (UniProt Q8NBF2) 0.234
ARFGAP1 C351 (UniProt Q8N6T3) 0.247
UniProt Q8N163_C443 0.118
SUPT20H C255 (UniProt Q8NEM7) 0.16
PPM1E C4 (UniProt Q8WY54) 0.231
PAF1 C218 (UniProt Q8N7H5) 0.102
RB1CC1 C1413 (UniProt Q8TDY2) 0.212
ABCF1 C741 (UniProt Q8NE71) 0.248
GPT2 C142 (UniProt Q8TD30) 0.128
UniProt Q8WU20_C415 0.215
NANP C242 (UniProt Q8TBE9) 0.3
UniProt Q8NB37_C179 0.175
DDX51 C402 (UniProt Q8N8A6) 0.172

Two entries picked at random from the list so far, as already listed:
log2 ratio of iodoacetamide-alkyne labeling, inactive:
ARFGAP2 C79 (UniProt Q8N6H7) 0.178
SUPT20H C255 (UniProt Q8NEM7) 0.16
